Data taken from article PMC2605561.
Like-named read-outs stand apart in the source and are kept apart here. No constants are given. Whether binding was seen depends on the method and setting. In cells and extracts the contact can be indirect. Some results given as binding are weak or reduced against the parent protein; the word gives no strength.

Chains of the proteins cited; added tags and fusions are not shown. Lines headed by an entry give the natural chain unless they say otherwise; changes in a name come on top. Residues count along the entry.
UniProt Q8VI56: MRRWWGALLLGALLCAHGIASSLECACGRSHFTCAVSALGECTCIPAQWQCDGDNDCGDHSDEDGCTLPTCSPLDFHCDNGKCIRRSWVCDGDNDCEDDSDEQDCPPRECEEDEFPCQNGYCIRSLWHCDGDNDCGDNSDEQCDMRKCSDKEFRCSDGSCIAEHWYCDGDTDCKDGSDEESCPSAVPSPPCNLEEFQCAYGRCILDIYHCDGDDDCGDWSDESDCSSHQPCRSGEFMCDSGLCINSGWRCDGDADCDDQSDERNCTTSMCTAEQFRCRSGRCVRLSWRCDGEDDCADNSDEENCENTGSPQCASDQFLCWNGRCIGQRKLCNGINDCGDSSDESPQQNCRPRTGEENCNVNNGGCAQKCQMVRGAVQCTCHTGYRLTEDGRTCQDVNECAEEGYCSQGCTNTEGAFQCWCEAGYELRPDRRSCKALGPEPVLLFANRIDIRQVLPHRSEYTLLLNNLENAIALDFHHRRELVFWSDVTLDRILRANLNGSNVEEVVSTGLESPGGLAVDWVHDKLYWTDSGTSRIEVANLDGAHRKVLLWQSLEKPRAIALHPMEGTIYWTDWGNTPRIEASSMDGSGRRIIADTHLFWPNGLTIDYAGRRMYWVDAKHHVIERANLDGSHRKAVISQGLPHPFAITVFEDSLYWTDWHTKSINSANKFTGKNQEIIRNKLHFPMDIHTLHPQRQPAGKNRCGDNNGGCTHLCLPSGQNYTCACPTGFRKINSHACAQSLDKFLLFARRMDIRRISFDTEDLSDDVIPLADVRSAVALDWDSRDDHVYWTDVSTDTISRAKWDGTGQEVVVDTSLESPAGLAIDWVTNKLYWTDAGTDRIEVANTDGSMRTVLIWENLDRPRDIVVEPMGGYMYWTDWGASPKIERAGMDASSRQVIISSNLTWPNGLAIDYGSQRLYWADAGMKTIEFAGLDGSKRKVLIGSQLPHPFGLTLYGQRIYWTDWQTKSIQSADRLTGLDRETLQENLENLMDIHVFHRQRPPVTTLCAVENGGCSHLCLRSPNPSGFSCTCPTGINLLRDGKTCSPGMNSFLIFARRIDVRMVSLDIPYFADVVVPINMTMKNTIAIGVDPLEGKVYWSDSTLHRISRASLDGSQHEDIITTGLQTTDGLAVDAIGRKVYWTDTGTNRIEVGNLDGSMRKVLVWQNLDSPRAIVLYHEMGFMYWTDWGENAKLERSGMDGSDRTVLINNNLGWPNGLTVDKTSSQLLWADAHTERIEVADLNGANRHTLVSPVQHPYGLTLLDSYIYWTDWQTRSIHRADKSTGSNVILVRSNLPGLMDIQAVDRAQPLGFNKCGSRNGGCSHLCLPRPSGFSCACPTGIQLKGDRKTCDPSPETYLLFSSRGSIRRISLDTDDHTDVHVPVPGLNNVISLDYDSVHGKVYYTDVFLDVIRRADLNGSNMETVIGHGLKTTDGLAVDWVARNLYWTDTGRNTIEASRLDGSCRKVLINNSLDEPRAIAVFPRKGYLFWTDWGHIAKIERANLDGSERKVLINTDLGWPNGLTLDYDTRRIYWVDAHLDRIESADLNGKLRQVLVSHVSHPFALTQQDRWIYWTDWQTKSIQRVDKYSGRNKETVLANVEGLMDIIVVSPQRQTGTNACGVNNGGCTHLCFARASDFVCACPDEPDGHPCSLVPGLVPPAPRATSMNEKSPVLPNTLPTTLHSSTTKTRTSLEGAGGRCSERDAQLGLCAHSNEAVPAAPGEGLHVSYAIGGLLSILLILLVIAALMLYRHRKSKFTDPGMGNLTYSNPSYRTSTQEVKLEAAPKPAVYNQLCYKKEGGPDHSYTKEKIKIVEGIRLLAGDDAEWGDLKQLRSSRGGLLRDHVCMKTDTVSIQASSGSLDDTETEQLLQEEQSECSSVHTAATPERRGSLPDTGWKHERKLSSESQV
LRP4: residues 21-1905 of Q8VI56
LRP4ecto-Fc: residues 21-1725 of Q8VI56
UniProt Q8BFU0, residues 24-243: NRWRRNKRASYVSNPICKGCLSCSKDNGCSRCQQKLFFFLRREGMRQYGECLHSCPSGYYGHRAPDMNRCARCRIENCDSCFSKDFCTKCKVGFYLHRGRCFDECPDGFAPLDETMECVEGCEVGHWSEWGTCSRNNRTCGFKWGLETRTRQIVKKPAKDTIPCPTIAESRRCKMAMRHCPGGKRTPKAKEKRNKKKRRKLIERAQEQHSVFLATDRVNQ
UniProt Q9CQN4, residues 24-206: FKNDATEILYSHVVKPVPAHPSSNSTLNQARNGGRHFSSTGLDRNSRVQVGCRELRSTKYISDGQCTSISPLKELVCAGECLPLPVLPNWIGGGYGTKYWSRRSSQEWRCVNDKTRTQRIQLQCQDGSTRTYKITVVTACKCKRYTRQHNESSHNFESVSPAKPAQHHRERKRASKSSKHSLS

B1: RAP-AP (ligand, UniProt P55302 29-360)
chain: QPIAGHGGKYSREKNEPEMAAKRESGEEFRMEKLNQLWEKAKRLHLSPVRLAELHSDLKIQERDELNWKKLKVEGLDKDGEKEAKLIHNLNVILARYGLDGRKDAQMVHSNALNEDTQDELGDPRLEKLWHKAKTSGKFSSEELDKLWREFLHYKEKIQEYNVLLDTLSRAEEGYENLLSPSDMAHIKSDTLISKHSELKDRLRSINQGLDRLRKVSHQGYGSTTEFEEPRVIDLWDLAQSANFTEKELESFREELKHFEAKIEKHNHYQKQLEISHQKLKHVESIGDPEHISRNKEKYVLLEEKTKELGYKVKKHLQDLSSRVSRARHNEL

Experiments:
LRP4ecto-Fc [1] = biological target: LRP4ecto-Fc (UniProt Q8VI56); assay: pull-down; cell-free: LRP4ecto-Fc from medium conjugated to Protein A-Agarose (4 C, 2 hrs), incubated with precleared media containing AP or AP-tagged proteins at 4 C overnight, washed three times with PBS; anti-AP western blot
LRP4 [2] = biological target: LRP4 (UniProt Q8VI56); assay: co-IP; HEK293A cells expressing LRP4 incubated in equal volumes of media containing AP or AP-tagged proteins at 37 C for 1 hr, cross-linked with dithiobis[succinimidylpropionate] at room temperature for 30 min, lysed (50 mM Tris-HCl pH 7.5, 150 mM NaCl, 1 mM MgCl2, 1 mM CaCl2, 1% Triton X-100); immunoprecipitation with anti-AP antibody and Protein A-Agarose, anti-LRP4 western blot
LRP4ecto-Fc [3] = biological target: LRP4ecto-Fc (UniProt Q8VI56); assay: pull-down; cell-free: LRP4ecto-Fc from medium conjugated to Protein A-Agarose (4 C, 2 hrs), incubated with precleared media containing AP or AP-tagged proteins at 4 C overnight, washed three times with PBS; anti-AP western blot; remark: listed apart in the source
LRP4 [4] = biological target: LRP4 (UniProt Q8VI56); assay: co-IP; HEK293A cells expressing LRP4 incubated in equal volumes of media containing AP or AP-tagged proteins at 37 C for 1 hr, cross-linked with dithiobis[succinimidylpropionate] at room temperature for 30 min, lysed (50 mM Tris-HCl pH 7.5, 150 mM NaCl, 1 mM MgCl2, 1 mM CaCl2, 1% Triton X-100); immunoprecipitation with anti-AP antibody and Protein A-Agarose, anti-LRP4 western blot; remark: listed apart in the source

Row | binding (LRP4ecto-Fc [1]) | binding (LRP4 [2]) | binding (LRP4ecto-Fc [3]) | binding (LRP4 [4]) | Molecule
1 | no binding | no binding |  |  | RSpondin2-AP (from UniProt Q8BFU0 24-243) (ligand)
2 | binds | binds |  |  | Wise-AP (from UniProt Q9CQN4 24-206) (ligand)
3 |  |  | binds | binds | B1
